# Experimental data reported in US10753892B2, “Non-invasive sensing of free metal ions using ion chemical exchange saturation transfer” (The Johns Hopkins University, priority 2013, dated 2020).
# Assay: 19F-iCEST MRI of 5F-BAPTA with Ca2+ (16.4 T, 37° C.), Bloch simulations
# Assay type: binding
# Procedure: 5F-BAPTA was dissolved in Hepes buffer (40 mM) to a final concentration of 10 mM and the pH was adjusted to the following values: 5.6, 6.0, 6.4, 6.8, 7.0, 7.2, and 7.6. Stock 10 mM solutions of CaCl2, MgCl2, and ZnCl2 were prepared in 40 mM Hepes buffer. Five μL of the stock solution was added to 1 mL of 10 mM 5F-BAPTA resulting in a 200:1 ratio (10 mM: 50 μM) between the free 5F-BAPTA and the M^2+ ion following by a pH adjustment. One mL of each sample (with adjusted pH) was transferred into a 8 mm NMR tube within a 25 mm NMR tube in order to center the sample in the coil for the MRI experiments.
# MRI experiments were performed on a vertical 16.4 T scanner (Bruker Avance system) at 37° C. A 25 mm birdcage radiofrequency coil was used to acquire both ^1H and ^19F MR images by sweeping the coil frequency from proton (700 MHz) to fluorine (658.8 MHz) frequency.
# The saturation transfer effect on the free 5F-BAPTA, i.e., the MTR or iCEST, was calculated for each voxel in the image by using a Lorentzian line shape fitting as described in Jones et al. (Magn Reson Med 2012, 67, 1579), and Liu et al. (Molecular imaging 2012, 11, 47).
# Numerical solutions to the six Bloch equations including direct saturation of free 5F-BAPTA were obtained as described previously (McMahon, M. T. et al., Magnetic Resonance in Medicine 2006, 55, 836). The relaxation parameters for ^19F used in the Bloch equations were R1=1/T1 with bound calcium (Rib)=0.71 s^−1, R2 bound calcium (R2b)=29 s^−1, whereas the R1 and R2 values of free 5F-BAPTA (R1f and R2f) were determined experimentally through inversion-recovery and saturation-recovery experiments as a function of pH on solutions containing 20 mM 5F-BAPTA as listed in Table 1 as follows:
# Saturation time (tsat) was either 1500 ms to 2000 ms as indicated in the text.
# An aqueous solution containing 0.5 mM of 5F-BAPTA and 500 nM in Hepes buffer (40 mM, pH=7.2) was transferred into a 20 mm NMR tube, which was located within a 25 mm NMR tube in order to centralize the sample in the coil for the MRI experiment. The same parameters used for ^19F-iCEST experiments were used except the followings: TR=3000 ms, RARE=8, FOV=6.0 cm (resolution=1.875×1.875 mm), and 168 averages.
structure (smiles),measurement,setting,value
"O=C(O)CN(CC(=O)O)c1ccc(F)cc1OCCOc1cc(F)ccc1N(CC(=O)O)CC(=O)O [5F-BAPTA, 2,2′,2″,2′″-(2,2′-(Ethane-1,2-diylbis(oxy))bis(4-fluoro-2,1-phenylene))bis(azanetriyl)tetraacetic acid]",Δω (ppm) between Ca2+-bound and free 5F-BAPTA,pH 5.6,2.1 ppm
same,Δω (ppm) between Ca2+-bound and free 5F-BAPTA,pH 6.0,4.0 ppm
same,Δω (ppm) between Ca2+-bound and free 5F-BAPTA,pH 6.4,5.0 ppm
same,Δω (ppm) between Ca2+-bound and free 5F-BAPTA,pH 6.8,5.6 ppm
same,Δω (ppm) between Ca2+-bound and free 5F-BAPTA,pH 7.0,5.9 ppm
same,Δω (ppm) between Ca2+-bound and free 5F-BAPTA,pH 7.2,6.2 ppm
same,Δω (ppm) between Ca2+-bound and free 5F-BAPTA,pH 7.6,6.2 ppm
